Measurements published in patent publication US11767302B2, “Reagents and methods for tetrazine synthesis” (University of Delaware, priority 2020, dated 2023).
Where a name gives a salt, the structure may show the parent alone. At least one compound was matched to its structure with a doubt left.

Conditions: 30° C. to 400/500° C. at 5° C./min

CS/C(=N\N)NN [compound 2, Methyl Thiocarbohydrazide Iodide Salt]
DSC onset temperature: 135 °C | DSC transition enthalpy: 875 J/g
